Experimental data reported in paper PMC8115349.
Results are given in words; binding and its absence hold for the method and conditions named. In cells and extracts the contact can be indirect. Some results given as binding are weak or reduced against the parent protein; the word gives no strength. For some assays here: Where a sequence is shown, tags or fusion partners need not be part of it.

Amino acid sequences for entries named in this document (tags omitted). A change or cut given only in a name is not applied to a line headed by its entry.
UniProt Q13546: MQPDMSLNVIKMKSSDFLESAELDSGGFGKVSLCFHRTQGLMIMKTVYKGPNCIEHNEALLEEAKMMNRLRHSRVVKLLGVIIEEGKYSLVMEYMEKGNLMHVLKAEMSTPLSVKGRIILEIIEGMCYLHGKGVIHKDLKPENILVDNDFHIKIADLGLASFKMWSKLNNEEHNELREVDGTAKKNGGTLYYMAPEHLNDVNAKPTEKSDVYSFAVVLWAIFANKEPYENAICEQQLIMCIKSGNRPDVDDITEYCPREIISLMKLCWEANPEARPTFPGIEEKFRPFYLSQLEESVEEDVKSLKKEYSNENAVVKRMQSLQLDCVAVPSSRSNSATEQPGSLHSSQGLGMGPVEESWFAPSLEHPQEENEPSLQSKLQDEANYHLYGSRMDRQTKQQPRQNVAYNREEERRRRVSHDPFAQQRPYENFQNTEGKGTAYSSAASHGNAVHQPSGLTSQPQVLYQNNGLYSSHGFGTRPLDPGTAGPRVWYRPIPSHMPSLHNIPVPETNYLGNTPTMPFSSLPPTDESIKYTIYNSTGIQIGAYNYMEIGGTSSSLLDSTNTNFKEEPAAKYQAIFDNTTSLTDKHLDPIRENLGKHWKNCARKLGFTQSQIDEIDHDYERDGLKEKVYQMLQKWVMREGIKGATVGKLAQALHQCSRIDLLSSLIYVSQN

T1: AQP1-3×FLAG (human) (UniProt P29972)
T1 sequence: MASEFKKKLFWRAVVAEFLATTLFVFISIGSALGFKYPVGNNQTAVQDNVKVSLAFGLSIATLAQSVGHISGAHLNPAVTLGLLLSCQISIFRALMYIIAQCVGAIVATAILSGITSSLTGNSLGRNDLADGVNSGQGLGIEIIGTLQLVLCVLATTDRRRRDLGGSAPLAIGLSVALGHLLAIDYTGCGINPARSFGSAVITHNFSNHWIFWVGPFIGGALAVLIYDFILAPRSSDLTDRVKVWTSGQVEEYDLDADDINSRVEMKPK


Assays:
AQP1-3×FLAG (human) = target: T1, AQP1-3×FLAG (human); assay: co-IP; co-immunoprecipitation of FLAG from HEK-293T cells expressing AQP1-3×FLAG and RIPK1 or a point mutant; RIPA lysis buffer, protein G agarose beads, overnight at 4 °C; Western blot
[1] = target: receptor-interacting protein kinase 1 (human (endogenous in TNBC tumor tissue)) (UniProt Q13546); assay: co-IP; co-immunoprecipitation of RIPK1 from RIPA lysates of TNBC tissue; antibody coupled to protein G agarose beads, overnight at 4 °C; Western blot

binding (AQP1-3×FLAG (human)) | binding [1] | Molecule
binds | – | RIPK1 (wild type, expressed from plasmid) (from UniProt Q13546-1 1-671)
– | binds | Aquaporin 1 (protein, UniProt P29972 1-269) MASEFKKKLFWRAVVAEFLATTLFVFISIGSALGFKYPVGNNQTAVQDNVKVSLAFGLSIATLAQSVGHISGAHLNPAVTLGLLLSCQISIFRALMYIIAQCVGAIVATAILSGITSSLTGNSLGRNDLADGVNSGQGLGIEIIGTLQLVLCVLATTDRRRRDLGGSAPLAIGLSVALGHLLAIDYTGCGINPARSFGSAVITHNFSNHWIFWVGPFIGGALAVLIYDFILAPRSSDLTDRVKVWTSGQVEEYDLDADDINSRVEMKPK
